Data reported in PubChem BioAssay AID504444 (National Center for Advancing Translational Sciences (NCATS), 2011).
Hit rate of the full screen: of about 360,000 compounds, about 7,500 (2.1%) were called active. The inconclusive results got no clear call from the source; some entries with a clear call stand among them for comparison. The call rests on the fitted dose curve; in most records, active means well fitted inhibition curve with a large enough effect; inconclusive means small, poorly fitted or top-dose-only effect, or effect the other way; inactive means flat fitted curve, though single readings scatter. Where the call is inconclusive, the potency comes from a doubtful curve fit.
On the % scale 0 is the no-effect control and ±100 the full control effect; potency means the concentration at half of the fitted maximal effect.

Assay: Nrf2 qHTS screen for inhibitors; further: nearly all actives have a fitted effect of over 60% in size
Details: A549 ARE-Fluc reporter, luciferase luminescence, 18-24 h; activity change, negative = inhibition: at 46 µM (top of the series)
How it was run: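 Quantitative HTS in A549 cells stably bearing an antioxidant response element-firefly luciferase construct. Inhibition of Nrf2-driven transcription was scored by luminescence after 18-24 h of compound exposure at 37 °C.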
In the case of `O=C(Nc1ccccc1)OC1CCC2CC1CCC2OC(=O)Nc1ccccc1` (centres undefined), the Potency is reported as inconclusive: 29.1 µM [falling, single point].
For `N#Cc1c(-c2ccccc2)c(-c2ccccc2)n(Cc2ccco2)c1NC(=O)c1cccs1`, the Potency was inconclusive: 7.94 µM [falling, partial curve].
For `CC[C@@H](C)[C@@H](C(=O)N1CCN(C(=O)OC(C)(C)C)CC1)n1cc(CCCCNC(=O)OC(C)(C)C)nn1`, the Potency was inconclusive: 16.4 µM [falling, partial curve].
In the case of `COc1ccccc1-c1nnc(-c2ccc(F)cc2)o1`, the Potency is reported as inconclusive: 18.4 µM [activator, partial curve].
For `CSc1nc(-c2ccco2)nn1C(=O)c1ccccc1`, the “activity change, negative = inhibition” value was inactive: -3.59%.
For `C=CCNC1=C(Cl)C(=O)c2ccccc2C1=O`, the Potency was active: 16.4 µM.
In the case of `CC1(C)C(C=C(Cl)Cl)C1C(=O)Nc1ccc([N+](=O)[O-])cc1` (centres undefined), the Potency is reported as inconclusive: 23.1 µM [falling, single point].
For `COc1cccc(NC(=O)CN(C)C(=O)c2ccc3c(c2)S(=O)(=O)N=C2CCCCCN23)c1`, the “activity change, negative = inhibition” value was inactive: -3.69%.
For `Cc1ccc(-n2nc(C)c3c2C(Br)C(C)(C)CC3=O)nc1` (centres undefined), the Potency was active: 7.31 µM.
With `C/C(=N/NC(=O)c1ccccc1)c1ccc(NC(=O)C(F)(F)F)cc1` the Potency was inconclusive: 10.3 µM [activator, partial curve].
In the case of `CC(C)(C)OC(=O)N(CCc1ccccc1)Cc1ccc(OCc2cccc(NC(=O)/C=C/c3ccccc3)c2)cc1`, the Potency is reported as inconclusive: 25.9 µM [activator, single point].
For `c1ccc(N2CCOCC2)c(Nc2nc3ccccc3n3cnnc23)c1`, the Potency was inconclusive: 13 µM [falling, partial curve, poor fit].
For `CC(=O)c1ccc(NC(=O)CNCC(c2ccccc2)N(C)C)cc1` (centres undefined), the Potency was inconclusive: 29.1 µM [activator, single point].
In the case of `COc1cccc(CN(C(=O)Cc2c[nH]c3ccccc23)C(C(=O)NC2CCCCC2)c2ccc(C)o2)c1` (centres undefined), the Potency is reported as active: 20.6 µM.
With `CC(C(=O)NC(=O)NC1CCCCC1)N(C)CC(=O)Nc1ccc(F)c(F)c1F` (centres undefined) the Potency was inconclusive: 29.1 µM [falling, single point].
With `Cc1ccc(OCCC(=O)N(CC(=O)Nc2ccccc2C(F)(F)F)Cc2ccco2)cc1` the “activity change, negative = inhibition” value was inactive: -14%.
With `Cc1ccccc1Nc1c(-c2c[nH]c3ccccc23)nc2ccc(Cl)cn12` the “activity change, negative = inhibition” value was inactive: 7.01%.
In the case of `COc1cc(OC)cc(C(=O)NNC(=O)c2ccccn2)c1`, the Potency is reported as active: 8.2 µM.
In the case of `O=C(O)/C=C\C(=O)NNC(=O)c1cc(-c2ccccc2)n[nH]1`, the “activity change, negative = inhibition” value is reported as inactive: -25.6%.
With `COc1ccccc1CN1C(=O)[C@@H]2Cc3c([nH]c4ccccc34)C(C)(C)N2C1=O` the Potency was inconclusive: 18.4 µM [falling, single point].
In the case of `Cc1cccc(OC(=O)CSc2nnc(-c3cccs3)o2)c1C`, the Potency is reported as inconclusive: 13 µM [activator, partial curve].
For `CC(C)Oc1ccc(Cn2c(-c3ccco3)n[nH]c2=S)cc1`, the “activity change, negative = inhibition” value was inactive: 6.26%.
With `CCc1nonc1NC(=O)COc1ccc(Cl)c(C)c1` the “activity change, negative = inhibition” value was inactive: 1.01%.
For `Oc1cccc(/C=N/NC(=S)Nc2cccnc2)c1O`, the Potency was inconclusive: 29.1 µM [falling, single point].
With `CCOc1ccc(CNC(=O)c2ccc(NC(=O)N3CCCCc4ccccc43)cc2)cc1` the Potency was inconclusive: 29.1 µM [activator, single point].
With `CCCCn1c(N)c(N(CC(C)C)C(=O)CCCc2cccs2)c(=O)[nH]c1=O` the “activity change, negative = inhibition” value was inactive: 14.3%.
With `CC(C)C[C@H]1CN([C@@H](CC(C)C)CN2CCCC2CN2C(=S)NC[C@@H]2Cc2ccc(O)cc2)C(=S)N1CC1CCCCC1` (some centres undefined) the Potency was inconclusive: 20.6 µM [falling, single point].
For `Cc1c(NC(=O)/C=C/c2cn(-c3ccccc3)nc2-c2ccccc2)c(=O)n(-c2ccccc2)n1C`, the Potency was inconclusive: 32.6 µM [falling, single point].
With `Cc1cc2c(Nc3ccc(O)cc3)ncnc2s1` the Potency was inconclusive: 29.1 µM [falling, single point].
For `O=C(CSc1nnc(COc2ccccc2Cl)o1)Nc1ccccc1`, the Potency was inconclusive: 0.103 µM [falling, full curve, poor fit].
For `COc1ccccc1C1/C(=C(/O)c2ccccc2)C(=O)C(=O)N1CC(C)O` (centres undefined), the Potency was inconclusive: 0.092 µM [falling, full curve].
With `COc1ccc(CN(C)C(=O)Cn2cnc3c(SC)nc(N)nc32)cc1OC` the Potency was inconclusive: 14.6 µM [falling, partial curve].
With `CN(CC(=O)Nc1ccc(Cl)c(C(F)(F)F)c1)C(=O)C1CCCO1` (centres undefined) the Potency was inconclusive: 25.9 µM [falling, single point].
For `O=C(N/N=C\c1ccc(Oc2ccccc2)cc1)c1csnn1`, the Potency was inconclusive: 10.3 µM [activator, partial curve].
In the case of `O=C(NCCc1cccs1)c1ccc(Cn2c(SCc3cccc(F)c3)nc3cccnc32)cc1`, the Potency is reported as inconclusive: 25.9 µM [falling, single point].
In the case of `COc1ccc(C2=NOC(C)(c3nnc(-c4ccncc4)o3)C2)cc1` (centres undefined), the “activity change, negative = inhibition” value is reported as inactive: -4.41%.
With `CON(C)S(=O)(=O)c1cccc(C(=O)Nc2cccc(S(=O)(=O)NC3=NCCCCC3)c2)c1` the Potency was inconclusive: 16.4 µM [falling, partial curve].
With `CCOc1ccc(N/C(N)=N/c2nc(CSc3nnc(C)s3)cc(=O)[nH]2)cc1` the Potency was inconclusive: 13 µM [activator, partial curve].
In the case of `CC(=O)N1CCN(S(=O)(=O)c2cccc(C(=O)NC3CCCc4ccccc43)c2)CC1` (centres undefined), the Potency is reported as inconclusive: 20.6 µM [falling, partial curve, poor fit].
With `Cc1ccccc1S(=O)Cc1ccc(C(=O)NCc2ccccc2Cl)o1` (centres undefined) the “activity change, negative = inhibition” value was inactive: -23.4%.
With `Cc1c(CCC(=O)O)c(=O)oc2cc3oc4c(c3cc12)CCCC4` the Potency was inconclusive: 18.4 µM [falling, partial curve].
For `Cc1ccc(CSC2=NC(C)(C)Nc3ccccc32)c(C)c1`, the Potency was inconclusive: 20.6 µM [falling, single point].
In the case of `CCOc1ccccc1NC(=O)Cn1c(=O)oc2ccccc21`, the “activity change, negative = inhibition” value is reported as inactive: 14%.
In the case of `O=C(NNC(=O)c1ccccc1F)c1ccco1`, the Potency is reported as inconclusive: 20.6 µM [activator, single point].
